These are yes or no findings as the source states them, for the method shown. Some results given as binding are weak or reduced against the parent protein; the word gives no strength. For some of these results: Where a sequence is shown, tags or fusion partners need not be part of it.
T1: ΔCRD1-2 (human) (UniProt P43489)
T1 sequence (truncated extracellular domain, looked up): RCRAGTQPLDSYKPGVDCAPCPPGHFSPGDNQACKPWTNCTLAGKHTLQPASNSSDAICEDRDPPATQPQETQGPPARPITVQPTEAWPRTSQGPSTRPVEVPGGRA

T2: ΔCRD1 (human) (UniProt P43489)
T2 sequence (truncated extracellular domain, looked up): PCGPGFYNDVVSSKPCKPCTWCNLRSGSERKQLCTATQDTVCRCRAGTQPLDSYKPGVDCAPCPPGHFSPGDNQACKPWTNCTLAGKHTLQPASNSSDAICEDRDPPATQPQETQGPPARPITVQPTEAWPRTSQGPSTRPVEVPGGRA

T3: recombinant human OX40/His fusion protein (Novoprotein, CB17) (human) (UniProt P43489)
T3 sequence: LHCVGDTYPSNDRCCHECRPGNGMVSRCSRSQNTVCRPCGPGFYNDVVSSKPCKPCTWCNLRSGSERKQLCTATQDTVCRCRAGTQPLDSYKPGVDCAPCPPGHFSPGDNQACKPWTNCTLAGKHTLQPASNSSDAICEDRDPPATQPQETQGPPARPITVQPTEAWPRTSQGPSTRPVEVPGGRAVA


Legend:
[1] = molecular target: T1, ΔCRD1-2 (human); assay: ELISA, OX40 variant coated at 1 µg/ml, HRP-labeled secondary antibody, OD 450 nm
[2] = molecular target: T2, ΔCRD1 (human); assay: as above
[3] = molecular target: T3, recombinant human OX40/His fusion protein (Novoprotein, CB17) (human); assay: BLI (Octet RED96), off-rate ranking

| binding [1] | binding [2] | binding [3] | Binder |
| --- | --- | --- | --- |
| binds | binds | binds | HuEM1007-044-16 (antibody, human IgG1, kappa, L234A L235A, V domains shown) VH: EVQLQQSGAEVKKPGSSVKVSCKASGHAFSSSWMNWVKQRPGKGLEWIGRIYPGDEITNYNAKFKDKATLTADKSTSTAYMELSSLRSEDTAVYYCARDLLMPYWGQGTLVTVSS VL: DIVMTQTPLSLPVTPGEPASISCRSSKSLLYSNAITYLYWYLQKPGQSPQLLIYQMSNLAPGVPDRFSSSGSGTDFTLKISRVEAEDVGVYYCAQNLELPFTFGQGTKLEIKR |
| – | – | binds | EM1007-mAb044c-11 (antibody, human IgG1, kappa, L234A L235A, V domains shown) VH: QVQLQQSGPELVKPGASVTISCKASGHAFSSSWMNWVKQRPGKGLEWIGRIYPGDEITNYNAKFKDKATLTADKSSSTAYMQLSSLTFEDSAVYFCARDLLMPYWGQGTLVTVSA VL: DIVMTQTAFSNPVTLGTSASISCRSSKSLLYSNAITYLYWYLQKPGQSPHLLIYQMSNLAPGVPDRFSSSGSGTDFTLRISRVEAEDVGIYYCAQNLELPFTFGSGTKLEIKR |

From US20250282881A1
